# Data reported in publication PMC5688218.
# Protein sequences, listed by entry. Tags and fused reporters are not part of them. Lines headed by an entry give the natural chain unless they say otherwise; changes in a name come on top.
# UniProt Q96EQ9: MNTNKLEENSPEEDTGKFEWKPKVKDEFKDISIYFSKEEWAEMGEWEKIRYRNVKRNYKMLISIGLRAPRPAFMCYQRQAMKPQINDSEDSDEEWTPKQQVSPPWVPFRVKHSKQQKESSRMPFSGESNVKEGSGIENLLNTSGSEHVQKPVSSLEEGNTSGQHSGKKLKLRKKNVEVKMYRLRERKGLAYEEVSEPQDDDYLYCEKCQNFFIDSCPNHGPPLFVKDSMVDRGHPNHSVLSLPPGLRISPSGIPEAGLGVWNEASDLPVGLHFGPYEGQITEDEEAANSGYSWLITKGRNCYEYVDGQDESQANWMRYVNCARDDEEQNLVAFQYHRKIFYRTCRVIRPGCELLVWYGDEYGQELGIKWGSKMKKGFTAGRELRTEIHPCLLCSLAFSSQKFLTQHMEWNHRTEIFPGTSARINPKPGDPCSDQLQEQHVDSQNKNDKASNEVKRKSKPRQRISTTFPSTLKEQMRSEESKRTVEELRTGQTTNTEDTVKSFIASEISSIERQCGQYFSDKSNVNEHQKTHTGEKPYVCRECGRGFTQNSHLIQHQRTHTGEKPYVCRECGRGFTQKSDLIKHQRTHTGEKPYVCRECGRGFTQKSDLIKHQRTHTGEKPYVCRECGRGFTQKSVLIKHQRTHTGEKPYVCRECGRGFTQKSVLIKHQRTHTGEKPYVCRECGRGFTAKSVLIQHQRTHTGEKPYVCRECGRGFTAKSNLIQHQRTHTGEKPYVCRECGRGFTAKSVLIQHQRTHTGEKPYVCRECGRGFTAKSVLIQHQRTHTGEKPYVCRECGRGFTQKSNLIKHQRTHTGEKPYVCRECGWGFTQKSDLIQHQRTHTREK
# Results are given in words; binding and its absence hold for the method and conditions named. Binding calls can cover weak binding; strength is not graded here. Sequences can lack the tags named with a protein.
# B1: N-terminal fragment of TRIM28 (amino acid residues 1–419), Gal4 AD fusion (domain or fragment, UniProt Q13263 1-419)
# chain: MAASAAAASAAAASAASGSPGPGEGSAGGEKRSTAPSAAASASASAAASSPAGGGAEALELLEHCGVCRERLRPEREPRLLPCLHSACSACLGPAAPAAANSSGDGGAAGDGTVVDCPVCKQQCFSKDIVENYFMRDSGSKAATDAQDANQCCTSCEDNAPATSYCVECSEPLCETCVEAHQRVKYTKDHTVRSTGPAKSRDGERTVYCNVHKHEPLVLFCESCDTLTCRDCQLNAHKDHQYQFLEDAVRNQRKLLASLVKRLGDKHATLQKSTKEVRSSIRQVSDVQKRVQVDVKMAILQIMKELNKRGRVLVNDAQKVTEGQQERLERQHWTMTKIQKHQEHILRFASWALESDNNTALLLSKKLIYFQLHRALKMIVDPVEPHGEMKFQWDLNAWTKSAEAFGKIVAERPGTNSTG
# B2: mouse CEP70, full length (Gal4 AD fusion) (protein, UniProt Q6IQY5 1-616)
# chain: MTEGSQIFLLPISTSDSTKEPLSPVASKAQDPSLLSNRLMIEKQQEEAEWESINGLLMTHGFKPLCLVKGADLRDFIVFDKQSSQKMRQILKTLMEETTRQQSMIRELIETNQQLKSELQLEQNRAAHQEQRANDLQQIMDSVKSKIGELEDESLNRVCQQQNRIKDLQKEYKMLQMKCQQYKKNRMEQEGTIASLQKEIHRLAKEEEERILTQNRVFAHLCRRVPHSVLDKQLLCLIDYYECKLRKLHIQRQFEEDSQSEEKDFTNLGASPNYKGVLMSLQKQLKESKSRIDVLVGEKLSLQKDLENRPTEHELRLYKQQVKKLEKTLKKNIKLQDLIGQKKSDDTEKKDEPSKDSHQQALIEQSYFQVLCSINSIVHNPRAPVIIYKQSKGRAPNGNKDIGQDCGFEHLVPIIEMWVDELTSLKDLYKSLKILSAELVPWHSLKKLDEKEGVKVGDLLFMVDTMLEEVENQKETSSTPNSQTLQAIVSHFQKLFDVQSLNGVFPRMNEVYTRLGEMNNAVRNLQELLELDSSSSLCVVVSTVGKLCEIINKDVSEQVKQVLGPEDLQSIIKKLEEHEEFFPAFQAFANDLLEILEIDDLDAIVPAVKKLKILSY
# B3: mouse FKBP6 85–327 (Gal4 AD fusion) (domain or fragment, UniProt Q91XW8 85-327)
# chain: KLGEDITLWGMELGLLSMRKGELARFLFKPAYAYGTLGCPPLIPPNATVLFEIELIDFLDSAESDKFCALSAEQQEQFPLQKVLKVAATEREFGNYLFRQNRFCDAKVRYKRALLLLHRRLATCEEQHLVEPAVLLVLLNLSFVYLKLDRPAMALRYGEQALLIDKRNAKALFRCGQACLLLTEYERARDFLVRAQKEQPCNHDINNELKKLSSHYRDYVDREREMCHRMFAPCGSRSSVGGN
# B4: mouse IFT88, full length (Gal4 AD fusion) (protein, UniProt Q61371 1-824)
# chain: MENVHLAPETDEDDLYSGFNDYNPAYDTEELENDTGFQQAVRTSHGRRPPVTAKIPSTAVSRPIATGYGSKTSLTSSMGRPMTGTIQDGVARPMTAVRAAGFSKAALRGSAFDPLGQSRGPAPPLEAKNEDSPEEKIRQLEKKVNELVEESCIANSCGDLKLALEKAKDAGRKERVLVRQREQVTSPENINLDLTYSVLFNLASQYSANEMYAEALNTYQVIVKNKMFSNAGRLKVNMGNIYLKQRNYSKAIKFYRMALDQIPSVHKEMRIKIMQNIGITFIKTGQYSDAINSFEHIMSMAPSLKAGFNLILSCFAIGDREKMKKAFQKLIAVPLEIDEDDKYISPSDDPHTNLLIEAIKNDHLRQMERERKAMAEKYIMTAAKLIAPVIEASFAVGYNWCVEVVKASQYVELANDLEINKAITYLRQKDFNQAVDTLKMFEKKDSRVKSAAATNLSFLYYLENEFAQASSYADLAVNSDRYNPSALTNKGNTVFANGDYEKAAEFYKEALRNDSSCTEALYNIGLTYKKLNRLDEALDSFLKLHAILRNSAQVLCQIANIYELMEDPNQAIEWLMQLISVVPTDSQALSKLGELYDSEGDKSQAFQYYYESYRYFPSNIEVIEWLGAYYIDTQFCEKAIQYFERASLIQPTQVKWQLMVASCFRRSGNYQKALDTYKEIHRKFPENVECLRFLVRLCTDIGLKEVQEYATKLKRLEKMKEMREQRIKSGRDSSGGSRSKREGSAGSDSGQNNSASSKSERLSAKLRALPGTDEPYESSGNKEIDASYVDPLGPQIERPKTAAKKRIDEDDFADEELGDDLLPE
# Target: KRAB domain of mouse PRDM9 (Gal4 BD-PRDM9 KRAB) (mouse) (UniProt Q96EQ9)
# Assay: two-hybrid; Gal4 AD fusions (Y187) mated with Gal4 BD fusions (AH109); growth of diploids on −LWH and −LWHAd after 3 days at 30 °C, by streaking or spotting; 5 mM 3-AT added to −LWH for self-activating constructs
row,binding,Binder
1,no binding,B1
2,binds,B2
3,binds,B3
4,binds,B4
